This is one part of the list.

Chains of the proteins cited; added tags and fusions are not shown.
UniProt Q0JBA9, entry or part of it: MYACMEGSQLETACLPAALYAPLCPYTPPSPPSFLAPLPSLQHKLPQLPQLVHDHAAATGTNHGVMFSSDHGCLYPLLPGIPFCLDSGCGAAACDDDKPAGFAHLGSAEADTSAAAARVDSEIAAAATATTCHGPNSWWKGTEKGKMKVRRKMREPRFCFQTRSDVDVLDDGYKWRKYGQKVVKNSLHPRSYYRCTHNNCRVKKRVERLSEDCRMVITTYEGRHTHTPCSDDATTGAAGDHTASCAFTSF

For 42 sequences, binding signal results are on record in article PMC7819943, “Rice protein-binding microarrays: a tool to detect cis-acting elements near promoter regions in rice”.

The target of this experiment is OsWRKY34 (Oryza sativa, UniProt Q0JBA9 1-250). Briefly: protein-binding microarray (RPBM); PBS, 2% BSA, 51.3 ng/ul salmon testes DNA, 50 uM zinc acetate, 200 nM TF, 25 C, 1 h; high values mean tight binding. Conditions: protein: recombinant; tags: N-terminal polyhistidine and DsRed monomer fusion (pET32a); label: CyDye5-dUTP incorporated in the synthesized complementary strand; 3' TTTTT single-stranded linker to array surface; dsDNA, one strand shown. Summed up: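 The binding signal is fluorescence intensity per array feature (arbitrary units). Readings came from an Axon 4000B scanner after a washed, 2% BSA-blocked, double-stranded custom Agilent array had been incubated for 1 h at 25 °C with 200 nM protein and 50 µM zinc acetate. The protein was a Ni–NTA-purified transcription factor fused N-terminally to polyhistidine and DsRed, expressed in E. coli BL21-CodonPlus.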
On to “TCATCATCCATTCATTCATTCATTCACATCTCCATCGCTACGGAGTCACCTAGTGCAG”, for which the binding signal was 8470 fluorescence intensity (a.u.). Consider “CGCTCCGTCTTCTCCTTCCCCTTCCTGGGCTTCTTCTGCTCGGAGTCACCTAGTGCAG”, for which the binding signal is 8340 fluorescence intensity (a.u.). As to “AAGGCTTTGTACAGGTTCATTGTACTAGGAGGGGAGGGGTCGGAGTCACCTAGTGCAG”, the binding signal is 12100 fluorescence intensity (a.u.). To “TTGGATTGGGCTGCGGACCTGCGGTGGAGGGATTCAGGGTCGGAGTCACCTAGTGCAG” belongs 8240 fluorescence intensity (a.u.); to “TTCCACGTTACACAGTATATCTCTCCTATACTATCCAACACGGAGTCACCTAGTGCAG”, 8240 fluorescence intensity (a.u.). Consider “TTTCTTGATTTGGTTGGGATTGGTTGTTCTTGGGCTTATCCGGAGTCACCTAGTGCAG”, for which the binding signal was 18900 fluorescence intensity (a.u.). To “GCACTACTCCTTTCCTTTTCTTTTTCCCTCCTTGAGATTCCGGAGTCACCTAGTGCAG” belongs 8490 fluorescence intensity (a.u.); to “AGCTATTACTTCGTGACCAACTTTGATCGTCCGTCTTATTCGGAGTCACCTAGTGCAG”, 13200 fluorescence intensity (a.u.). To “GTATGGGTGTGTTTAGTTCTTTGGGTGTAAAGTTTTTAAGCGGAGTCACCTAGTGCAG” belongs 9730 fluorescence intensity (a.u.). As to “CCCGCCCCGCCGCCTCGTCGCCCGCCCGAGATCCGCTCCGCGGAGTCACCTAGTGCAG”, the binding signal was 8580 fluorescence intensity (a.u.). Next, “TGGTGAAATCACCTGGTTCAGTCTCTACCGTCCATACGCACGGAGTCACCTAGTGCAG”: 8920 fluorescence intensity (a.u.). Next, “TTCACAGTGTAGTTGTTTTATTTAGCCAGTATTTTTTTTTCGGAGTCACCTAGTGCAG”: 8820 fluorescence intensity (a.u.); “GAGTCTTTGGAAGGGGTCATTTTACGGTTTGGTCCCTGGACGGAGTCACCTAGTGCAG”: 8350 fluorescence intensity (a.u.). To “TTGCCTTTCATGGTGCGCTTTTGTTGCCATTCTCTTCGTGCGGAGTCACCTAGTGCAG” belongs 8340 fluorescence intensity (a.u.); to “TTTATACTACTGTCAAAAGGTTCTACAACAACACTTTGTTCGGAGTCACCTAGTGCAG”, 8200 fluorescence intensity (a.u.). Take “GACATTTACATGTACTGATTGCTGATTGCCATTGATTCATCGGAGTCACCTAGTGCAG”: the binding signal was 8980 fluorescence intensity (a.u.). To “ATCTCTCTTGTTTTCCATTGCCTACCAAGTGCCATATGATCGGAGTCACCTAGTGCAG” belongs 8630 fluorescence intensity (a.u.). Next, “AGCACACAGCTATACCTCTGTTTTTTTTTCTTTTATTCCCCGGAGTCACCTAGTGCAG”: 12000 fluorescence intensity (a.u.). Regarding “CCTCCGCCGCATCCGCCTCCGCCTCCGCCTTATTGCTCACCGGAGTCACCTAGTGCAG”, the binding signal was 11400 fluorescence intensity (a.u.). To “CAATTTATCCCAATTATGATCTGATTATACCATTGTTTTCCGGAGTCACCTAGTGCAG” belongs 10300 fluorescence intensity (a.u.); to “CTCTCGACCACTTCCATTCCTTCCCGGGCTCGCCGCGCCGCGGAGTCACCTAGTGCAG”, 9780 fluorescence intensity (a.u.); to “GGGTGTGGAAGCGCCGGGGTTCATGGGGATTGGGGAGGCCCGGAGTCACCTAGTGCAG”, 10400 fluorescence intensity (a.u.). To “TTTCATCCAACAGAGTTGCTGTTGACCGTTGACCTTTTTGCGGAGTCACCTAGTGCAG” belongs 15700 fluorescence intensity (a.u.); to “CAAGAACCACCATCACTTCCCTACCACTCCACTACTAGCCCGGAGTCACCTAGTGCAG”, 9900 fluorescence intensity (a.u.).

Consider “GCCCCGACACCCGGCGTTCCACGTCCGGCTTTTGCATCTTCGGAGTCACCTAGTGCAG”, for which the binding signal was 10600 fluorescence intensity (a.u.). Consider “AGCTGCGAGAAAATTCTCTTCACCTCGCCTACCGCCGCACCGGAGTCACCTAGTGCAG”, for which the binding signal is 8350 fluorescence intensity (a.u.).

With “CCTCACGCAGCTCATGCATTCTCGCTGACCATCCTTCCCGCGGAGTCACCTAGTGCAG”, the binding signal is 11900 fluorescence intensity (a.u.).

As to “TCACATAGCCTCGGCCCAGCGCTACCTCAAGTTCCGCCTTCGGAGTCACCTAGTGCAG”, the binding signal is 10300 fluorescence intensity (a.u.). Next, “CCTTGCTTTTTCAACAACCTTTCGTTCAATTAATTAACAACGGAGTCACCTAGTGCAG”: 11300 fluorescence intensity (a.u.); “AATCTCTCATTTTAGTGCGCCTACTCAACCTTCAGTTTCACGGAGTCACCTAGTGCAG”: 11900 fluorescence intensity (a.u.); “TTCTGGCCGCTCGCCCATCTCTACCGTTGGTTTCCGCCGCCGGAGTCACCTAGTGCAG”: 8660 fluorescence intensity (a.u.).

For the sequence “TCAAGTCAAATAGTTCAATATCTATTTTTGGTCTTCTCTACGGAGTCACCTAGTGCAG”, the binding signal is 8030 fluorescence intensity (a.u.). As to “CGTTATTTCTAAAAGGTGCGGGGTGAGGGATGTGGGGTGGCGGAGTCACCTAGTGCAG”, the binding signal is 10600 fluorescence intensity (a.u.).

Take “CTCTCTTGTCTCTTCAACTCTTTGCGTCTTGTCGGCACCGCGGAGTCACCTAGTGCAG”: the binding signal is 8540 fluorescence intensity (a.u.). Consider “AAGATATTTTCAATGTATTTTTTTATTGTTGACTTTTAAACGGAGTCACCTAGTGCAG”, for which the binding signal is 9030 fluorescence intensity (a.u.). As for “AGATTCCCTTTGCTGATTTGCTCCTTCAATCCCTACAATTCGGAGTCACCTAGTGCAG”, the binding signal was 9660 fluorescence intensity (a.u.). With “CTCCTCTCCTCTCTGTCTCTTCTTCTCGCTGCTCCCAATGCGGAGTCACCTAGTGCAG”, the binding signal was 8300 fluorescence intensity (a.u.).

Turning to “GCTACGAGTCTACTCCCACTTCGTCTGCTTGTGTTTTGGTCGGAGTCACCTAGTGCAG”, the binding signal is 9240 fluorescence intensity (a.u.). To “CCGCTCCGCTCCTTCCGCTCGAGCATCTCTCTCTGGTCTCCGGAGTCACCTAGTGCAG” belongs 9530 fluorescence intensity (a.u.); to “GCACCCACGCTGTGAGCCCCACCCGCGTACGCCGCGGCCTCGGAGTCACCTAGTGCAG”, 8150 fluorescence intensity (a.u.); to “CTCGTCCGCTTCCTTGTGCTTCCTCTTGTAGGCCAGCTTCCGGAGTCACCTAGTGCAG”, 9940 fluorescence intensity (a.u.). Take “TTTTGGGTGCTCTTTGACTTAGTCGAAGTGATCCTCTTGACGGAGTCACCTAGTGCAG”: the binding signal was 8770 fluorescence intensity (a.u.).
